PubChem BioAssay AID1259254 – NCATS – 2017

Aim: 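Genome-wide screen for genes that prevent DNA re-replication in cancer cells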 (primary screen)
System: human HCT116 colorectal cancer cells
Reagent: single siRNA against human genes
Timing: 3 days
Measurement: 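Nuclei stained with Hoechst and imaged; cell-cycle phase assigned by DNA content; G2 share scaled per plate, non-targeting siRNA 0%, GMNN siRNA 100%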
Direction: G2 robust z-score: higher = more G2 cells, more excess DNA replication
Active means: 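An siRNA counts as active if its G2 robust z-score lies at least 5 MADs above the screen median; here such calls match roughly 38% of GMNN control or more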
The deposit covers about 59,000 reagents; below is a part drawn at random. About 1,550 of all reagents (2.6%) were called active. 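G2 share is only a proxy for re-replication; each gene was hit by three separate siRNAs, and active genes were retested.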 The numbers tell different reagents against one gene apart. Not all columns of the deposit are shown. Not stated in the record: the amount of reagent.

G2 robust z-score, by gene symbol and reagent
KMT5C: #1 -0.796 inactive; #2 -0.258 inactive; #3 1.55 inactive
MT1XP1: #1 -0.0516 inactive; #2 0.121 inactive; #3 0.121 inactive
STARD3NL: #1 -0.644 inactive; #2 2.47 inactive; #3 0.603 inactive
PIH1D1: #1 -0.143 inactive; #2 -0.903 inactive; #3 -0.878 inactive
SDR16C5: #1 -0.252 inactive; #2 0.891 inactive; #3 -1 inactive
FKBP3: #1 0.957 inactive; #2 6.49 active; #3 0.123 inactive
OR6T1: #1 -0.69 inactive; #2 -0.199 inactive; #3 -0.114 inactive
TTC19: #1 1.37 inactive; #2 -0.214 inactive; #3 -0.488 inactive
HMGB3: #1 0.434 inactive; #2 -0.134 inactive; #3 -0.532 inactive
AAGAB: #1 -0.212 inactive; #2 0.559 inactive; #3 -0.929 inactive
RPS18P5: #1 1.15 inactive; #2 -0.234 inactive; #3 -0.505 inactive
ACTR6: #1 3.55 inactive; #2 2.95 inactive; #3 0.0258 inactive
SACK1H: #1 -0.807 inactive; #2 -0.519 inactive; #3 -0.518 inactive
OR9G1: #1 4.41 inactive; #2 -0.845 inactive; #3 3.96 inactive
GLDN: #1 -0.245 inactive; #2 -0.0115 inactive; #3 -0.467 inactive
GAGE1: #1 -0.821 inactive; #2 0.602 inactive; #3 1.72 inactive

4 neighbouring reagents already listed:
G2 robust z-score, by gene symbol and reagent
MT1XP1: #1 -0.0516 inactive; #2 0.121 inactive; #3 0.121 inactive
STARD3NL: #1 -0.644 inactive
